Source: PubChem BioAssay AID493014 (National Center for Advancing Translational Sciences (NCATS), 2011)
This is one part of the list. The main result of the screen is listed elsewhere. These columns were measured beside it and carry no call. Most of these compounds were active or inconclusive in the main read-out, so they are no random draw. The note in brackets gives the kind of curve behind each potency; many fits are weak.

Assay: qHTS Assay to Find Inhibitors of Chronic Active B-Cell Receptor Signaling
Conditions: ABC-DLBCL IkBa-CBG/CBR reporter, luminescence ratio (green luciferase fused to IkBa over red control in TMD8 lymphoma cells), 4 h
Method in brief: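 Cell line TMD8 (human ABC DLBCL), stably expressing tet-inducible CBG68-IkBa fusion and CBR; IMDM/0.5% FBS; cpd up to 46 uM; dox induction, 4 h, 37C/5% CO2; dual luminescence; green/red ratio; MG132 control.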

[1] = measured here: CBR red luminescence, cell number
[2] = measured here: IkBa-CBG green luminescence

Structure (SMILES) | AC50 [1] | AC50 [2]
C=CC(=C)CC(NC)c1ccccc1 (centres undefined) | 0.562 µM [rising, full curve, poor fit] | –
O=C1CC(c2ccc(O)c(O)c2)Oc2cc(O)cc(O)c21 (centres undefined) | 10 µM [falling, partial curve, poor fit] | –
Cc1ccc(C)c(Cc2c(C)nc3c(C(=O)NCc4ccc5c(c4)OCO5)cnn3c2C)c1 | 0.206 µM [falling, full curve, poor fit] | –
O=c1c2ccccc2oc2nc(-c3ccco3)n(-c3ccccc3)c(=O)c12 | 0.82 µM [falling, full curve] | –
Cc1ccc2nc(SCC(=O)Nc3cc([N+](=O)[O-])ccc3F)[nH]c2c1 | 32.6 µM [rising, partial curve, poor fit] | –
COc1ccc(/C=N/NC(=O)c2ccc3c(c2)OCCO3)c(OC)c1 | 2.82 µM [falling, full curve] | –
CCCCCCCOc1ccc(OC(=O)c2ccncc2)cc1 | 18.4 µM [rising, single point] | –
CCN(CC)C(=O)CSc1nnc(-c2ccccn2)n1-c1ccccc1OC | 15.8 µM [falling, single point] | –
CCc1cc2c(C)cc(C)cc2nc1SCC(=O)Nc1cc(C)on1 | 31.6 µM [rising, single point] | –
COC(=O)Cn1c(O)c(N=NC(=O)CNC(=O)c2ccc3c(c2)OCCO3)c2ccccc21 | 3.16 µM [rising, single point] | –
O=C(O)c1cc([N+](=O)[O-])ccc1NCc1ccccc1 | 5.62 µM [falling, partial curve, poor fit] | –
COc1ccc(CCNC(=O)c2ccc(-c3cccc([N+](=O)[O-])c3)o2)cc1OC | 25.1 µM [falling, single point] | –
Cc1ccc2c(c1)N(CC(=O)N1CCCCC1c1cccnc1)C(=O)CO2 (centres undefined) | 20.6 µM [rising, partial curve, poor fit] | –
O=C(N/N=C/c1cccc2ccccc12)c1cc(C2CC2)[nH]n1 | 12.6 µM [falling, single point] | –
COc1ccc(C(CCNCc2ccc(N(C)C)cc2)C(C)C)cc1 (centres undefined) | 17.8 µM [falling, partial curve, poor fit] | –
COCCNC(=O)c1ccccc1NC(=O)Nc1ccccc1 | 8.91 µM [falling, partial curve] | –
COc1ccc(/C=N\NC(=O)c2ccccc2)cc1COc1ccccc1 | 7.94 µM [falling, partial curve, poor fit] | –
O=[N+]([O-])c1ccccc1Oc1ccc(Cl)c2cccnc12 | 11.2 µM [falling, partial curve] | –
CC1CCN(C(=O)C2CC(c3ccc(F)cc3)=NO2)CC1 (centres undefined) | 1.78 µM [rising, partial curve, poor fit] | –
Cc1ccc(NC(=O)c2cc(NC(=O)CCC(=O)O)ccc2N2CCCCC2)cc1 | 3.16 µM [falling, partial curve] | –
C/C(=N\Nc1ccc([N+](=O)[O-])cc1)c1ccc2c(c1)OCO2 | 1.58 µM [rising, partial curve] | 11.2 µM [falling, single point]

Structure (SMILES) | AC50 [1] | AC50 [2]
Cc1cc(C(=O)N/N=C/c2cccn2C)no1 | 18.4 µM [falling, partial curve] | –
COc1cc(/C=N/NC(=O)c2nc(-c3ccccc3)n(-c3ccccc3)n2)ccc1O | 0.92 µM [rising, full curve] | –
CCOC(=O)C1=C(CSCc2ccccc2)NC(=O)NC1c1cc(C)ccc1C (centres undefined) | 2.59 µM [falling, full curve] | –
Cc1ccc(C(=O)CCC2CCCCC2=O)cc1 (centres undefined) | 6.51 µM [rising, single point] | –
Cc1cc(OC(C)C(=O)Nc2ccc(S(=O)(=O)Nc3onc(C)c3C)cc2)cc(C)c1Cl (centres undefined) | 14.1 µM [falling, single point] | –
CC1Cc2nc(SCC(=O)Nc3ccc4c(c3)OCO4)n(Cc3ccccc3)c(=O)c2S1 (centres undefined) | 29.1 µM [falling, single point] | –
CCN(CC)c1ccc(/C=N/N2CCOCC2)c(O)c1 | 5.8 µM [rising, full curve] | –
COc1ccc(-c2coc3cc(OC)cc(OC)c3c2=O)cc1 | 11.2 µM [falling, single point] | –
COc1ccc(Nc2ccnc3ccccc23)cc1 | 1.12 µM [falling, partial curve, poor fit] | –
NC(=O)c1nsc(C(=O)N(Cc2cccnc2)C(C(=O)NCc2ccc(F)cc2)c2ccc(O)cc2)c1N (centres undefined) | 2.51 µM [rising, partial curve] | –
CCCn1c(SCC(=O)N2CCCC2=O)nc2ccccc2c1=O | 16.4 µM [falling, single point] | –
O=C1CC(c2ccc3c(c2)OCCO3)Oc2ccccc21 (centres undefined) | 35.5 µM [falling, single point] | –
CCCC(=O)Nc1ccc(-c2nc3cc(C)c(C)cc3o2)cc1 | 2.82 µM [rising, full curve, poor fit] | –
Cn1c(CSCc2ccccc2Cl)nnc1SCC(=O)Nc1nccs1 | 3.66 µM [falling, full curve, poor fit] | –
CC1(CCc2ccccc2)NC(=O)N(CC(=O)Nc2ccccc2)C1=O (centres undefined) | 31.6 µM [falling, single point] | –
NS(=O)(=O)c1ccc(N/N=C/c2cn(-c3ccccc3)nc2-c2cccs2)cc1 | – | 20.6 µM [rising, partial curve, poor fit]
c1ccc(-c2ccccc2OCCCCN2CCCCCC2)cc1 | 8.91 µM [falling, single point] | –
COC(=O)N1C(=O)[C@](c2ccccc2)(C2CCCCC2)N1C(=O)OC | 2.82 µM [falling, full curve] | –
COc1cccc2sc(N(CCN(C)C)C(=O)/C=C/c3cccs3)nc12 | 14.1 µM [falling, single point] | –
O=c1c2ccccc2sn1-c1ccc(F)cc1 | 18.4 µM [falling, partial curve] | 23.1 µM [falling, single point]
C=C(C)Cn1c(N2CCCC2)nc2c1c(=O)n(C)c(=O)n2C | 2.82 µM [falling, partial curve, poor fit] | –

3 entries picked at random from those above, as already listed:
Structure (SMILES) | AC50 [1] | AC50 [2]
CC1Cc2nc(SCC(=O)Nc3ccc4c(c3)OCO4)n(Cc3ccccc3)c(=O)c2S1 (centres undefined) | 29.1 µM [falling, single point] | –
Cc1cc(OC(C)C(=O)Nc2ccc(S(=O)(=O)Nc3onc(C)c3C)cc2)cc(C)c1Cl (centres undefined) | 14.1 µM [falling, single point] | –
C/C(=N\Nc1ccc([N+](=O)[O-])cc1)c1ccc2c(c1)OCO2 | 1.58 µM [rising, partial curve] | 11.2 µM [falling, single point]
